# Where “and” joins values, the source holds several entries; their conditions need not be identical. Equal entries are not always repeated. The list shows a part of the results.
# What was measured:
# Test in all cases: protein microarray (ProtoArray v5.0), streptavidin-Alexa Fluor 647
# Conditions in all cases: 3'-biotin; 20 mM Tris (pH 7.5), 5 mM MgCl2, 100 mM KCl, 0.1% Tween-20, A/T-rich and random oligonucleotide blockers; temperature not stated; high values mean tight binding
# [1] = tested on: SF3A3 (human)
# [2] = tested on: SF3B3 (human)
# [3] = tested on: SFT2D1 (human)
# [4] = tested on: SFXN1 (human)
# [5] = tested on: SFXN2 (human)
# [6] = tested on: SFXN3 (human)
# [7] = tested on: SGCA (human)
# [8] = tested on: SGK2 (human)
# [9] = tested on: SGTA (human)
# [10] = tested on: SH2B1 (human)
# [11] = tested on: SH3BGRL2 (human)
# [12] = tested on: SH3BGRL3 (human)
# [13] = tested on: SH3GLB1 (human)
# [14] = tested on: SH3TC1 (human)
# [15] = tested on: SIN3A (human)
# [16] = tested on: SIP1 (human)
# [17] = tested on: SIRPG (human)
# [18] = tested on: SIVA1 (human)
# [19] = tested on: SKIL (human)
# [20] = tested on: SKIP (human)
sequence,measurement,setting,value
GGGAGGCTGAGGCAGG [G4-1 biotinylated (PQS2)],binding signal,[1],-0.346 z-score
same,binding signal,[2],-0.319 z-score and -0.32 z-score
same,binding signal,[3],-0.337 z-score
same,binding signal,[4],-0.346 z-score and -0.272 z-score
same,binding signal,[5],-0.272 z-score
same,binding signal,[6],-0.348 z-score
same,binding signal,[7],-0.326 z-score
same,binding signal,[8],-0.318 z-score
same,binding signal,[9],-0.352 z-score
same,binding signal,[10],-0.345 z-score
same,binding signal,[11],-0.281 z-score
same,binding signal,[12],-0.288 z-score
same,binding signal,[13],-0.352 z-score
same,binding signal,[14],-0.289 z-score
same,binding signal,[15],-0.287 z-score
same,binding signal,[16],-0.365 z-score
same,binding signal,[17],-0.321 z-score and -0.314 z-score
same,binding signal,[18],-0.325 z-score
same,binding signal,[19],-0.316 z-score
same,binding signal,[20],-0.313 z-score

# A different layout for some results above:
sequence | measurement | setting | value
GGGAGGCTGAGGCAGG [G4-1 biotinylated (PQS2)] | binding signal | [5] | -0.272 z-score
same | binding signal | [6] | -0.348 z-score
same | binding signal | [7] | -0.326 z-score

# — PMC5996148
